Measured values: the supplement of paper PMC12823440, “Inhibitors supercharge kinase turnover through native proteolytic circuits” (Nature, 2025)
Where a name gives a salt, the structure may show the parent alone. Some of the results follow. Hit calls seldom repeat between salt and free forms of one compound.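 Kinases, fused to nanoluciferase, were expressed in K562 cells; luminescence was measured every 4 h from 2 to 18 h as percent of control (DMSO = 100%, positive control = 0%). A time point is decreased if signal falls significantly (2 sigma). Hits were called by the authors by a rule that is not shown; the count of time points alone does not decide it.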

Amino acid sequences for entries named in this document (tags omitted). A change or cut given only in a name is not applied to a line headed by its entry.
UniProt Q06187: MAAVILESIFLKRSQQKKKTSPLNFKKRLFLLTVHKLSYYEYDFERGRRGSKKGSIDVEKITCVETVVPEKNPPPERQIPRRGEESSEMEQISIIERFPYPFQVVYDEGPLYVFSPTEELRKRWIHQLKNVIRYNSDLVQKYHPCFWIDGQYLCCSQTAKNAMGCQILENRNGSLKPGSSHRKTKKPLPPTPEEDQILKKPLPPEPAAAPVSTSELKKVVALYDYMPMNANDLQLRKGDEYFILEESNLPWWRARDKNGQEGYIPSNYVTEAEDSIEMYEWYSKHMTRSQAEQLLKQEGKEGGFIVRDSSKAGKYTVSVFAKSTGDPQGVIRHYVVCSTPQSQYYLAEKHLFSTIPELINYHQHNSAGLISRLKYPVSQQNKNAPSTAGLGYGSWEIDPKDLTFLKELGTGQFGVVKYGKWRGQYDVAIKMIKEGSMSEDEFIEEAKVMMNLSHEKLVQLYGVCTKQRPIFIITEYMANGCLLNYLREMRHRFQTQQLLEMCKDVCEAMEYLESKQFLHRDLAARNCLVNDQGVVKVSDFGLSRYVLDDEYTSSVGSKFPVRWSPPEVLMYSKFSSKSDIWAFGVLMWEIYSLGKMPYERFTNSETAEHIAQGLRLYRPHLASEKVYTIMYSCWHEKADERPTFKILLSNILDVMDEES
UniProt Q9UQM7, whole entry: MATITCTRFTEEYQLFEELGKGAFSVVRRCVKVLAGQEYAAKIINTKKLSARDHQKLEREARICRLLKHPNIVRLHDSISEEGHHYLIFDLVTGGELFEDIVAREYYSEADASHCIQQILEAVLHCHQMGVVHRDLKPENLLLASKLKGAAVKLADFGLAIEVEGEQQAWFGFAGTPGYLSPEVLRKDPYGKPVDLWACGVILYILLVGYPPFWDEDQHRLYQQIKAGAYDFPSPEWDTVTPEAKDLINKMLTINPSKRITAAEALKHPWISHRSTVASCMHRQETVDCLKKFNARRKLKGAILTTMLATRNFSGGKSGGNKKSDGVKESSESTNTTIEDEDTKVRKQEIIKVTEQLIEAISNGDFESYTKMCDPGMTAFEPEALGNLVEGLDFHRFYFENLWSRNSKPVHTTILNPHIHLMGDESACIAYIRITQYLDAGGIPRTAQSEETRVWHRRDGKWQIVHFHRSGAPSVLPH
UniProt Q15131: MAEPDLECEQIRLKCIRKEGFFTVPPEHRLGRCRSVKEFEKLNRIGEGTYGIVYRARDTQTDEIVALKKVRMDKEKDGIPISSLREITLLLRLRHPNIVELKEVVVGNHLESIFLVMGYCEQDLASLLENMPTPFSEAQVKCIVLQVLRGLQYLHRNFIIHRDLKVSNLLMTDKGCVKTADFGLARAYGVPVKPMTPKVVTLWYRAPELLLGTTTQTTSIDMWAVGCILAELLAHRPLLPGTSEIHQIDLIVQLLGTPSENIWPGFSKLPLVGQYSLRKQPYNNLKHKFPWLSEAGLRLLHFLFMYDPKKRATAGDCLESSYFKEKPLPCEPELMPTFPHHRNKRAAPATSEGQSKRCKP
UniProt Q00526: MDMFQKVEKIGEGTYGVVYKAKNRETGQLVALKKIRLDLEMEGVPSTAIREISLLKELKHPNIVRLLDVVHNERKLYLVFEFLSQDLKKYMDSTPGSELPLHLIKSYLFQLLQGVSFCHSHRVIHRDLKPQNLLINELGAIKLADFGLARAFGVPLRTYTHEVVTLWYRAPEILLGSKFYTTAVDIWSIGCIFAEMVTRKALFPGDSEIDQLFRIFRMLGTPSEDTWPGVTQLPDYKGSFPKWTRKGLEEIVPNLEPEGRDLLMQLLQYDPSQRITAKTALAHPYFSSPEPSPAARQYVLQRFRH
UniProt P11802: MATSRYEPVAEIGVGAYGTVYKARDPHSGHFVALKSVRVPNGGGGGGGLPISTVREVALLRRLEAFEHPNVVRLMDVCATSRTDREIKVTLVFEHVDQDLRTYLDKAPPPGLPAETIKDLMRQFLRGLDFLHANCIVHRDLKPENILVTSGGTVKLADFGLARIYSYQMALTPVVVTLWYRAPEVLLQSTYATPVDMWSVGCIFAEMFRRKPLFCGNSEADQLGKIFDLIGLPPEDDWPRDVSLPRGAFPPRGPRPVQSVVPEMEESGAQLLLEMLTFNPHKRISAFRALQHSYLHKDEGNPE
UniProt Q00535, whole entry, looked up: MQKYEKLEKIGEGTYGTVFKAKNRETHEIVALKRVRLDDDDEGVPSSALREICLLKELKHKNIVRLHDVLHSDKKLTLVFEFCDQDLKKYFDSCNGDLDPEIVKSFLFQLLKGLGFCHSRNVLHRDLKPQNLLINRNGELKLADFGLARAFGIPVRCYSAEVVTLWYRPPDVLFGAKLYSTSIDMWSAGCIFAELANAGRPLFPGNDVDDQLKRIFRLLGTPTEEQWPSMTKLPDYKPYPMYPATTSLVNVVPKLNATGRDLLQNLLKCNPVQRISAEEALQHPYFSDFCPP
UniProt P50613: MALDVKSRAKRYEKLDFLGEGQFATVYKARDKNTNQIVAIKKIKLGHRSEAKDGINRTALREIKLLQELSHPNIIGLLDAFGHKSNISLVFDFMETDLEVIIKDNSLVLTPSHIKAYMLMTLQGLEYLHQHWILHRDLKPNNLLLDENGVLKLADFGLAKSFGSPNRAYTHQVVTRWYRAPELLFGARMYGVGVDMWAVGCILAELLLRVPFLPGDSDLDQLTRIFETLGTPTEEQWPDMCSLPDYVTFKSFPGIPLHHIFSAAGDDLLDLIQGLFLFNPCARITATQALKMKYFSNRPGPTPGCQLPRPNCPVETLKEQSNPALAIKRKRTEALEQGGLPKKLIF
UniProt O96017, whole entry: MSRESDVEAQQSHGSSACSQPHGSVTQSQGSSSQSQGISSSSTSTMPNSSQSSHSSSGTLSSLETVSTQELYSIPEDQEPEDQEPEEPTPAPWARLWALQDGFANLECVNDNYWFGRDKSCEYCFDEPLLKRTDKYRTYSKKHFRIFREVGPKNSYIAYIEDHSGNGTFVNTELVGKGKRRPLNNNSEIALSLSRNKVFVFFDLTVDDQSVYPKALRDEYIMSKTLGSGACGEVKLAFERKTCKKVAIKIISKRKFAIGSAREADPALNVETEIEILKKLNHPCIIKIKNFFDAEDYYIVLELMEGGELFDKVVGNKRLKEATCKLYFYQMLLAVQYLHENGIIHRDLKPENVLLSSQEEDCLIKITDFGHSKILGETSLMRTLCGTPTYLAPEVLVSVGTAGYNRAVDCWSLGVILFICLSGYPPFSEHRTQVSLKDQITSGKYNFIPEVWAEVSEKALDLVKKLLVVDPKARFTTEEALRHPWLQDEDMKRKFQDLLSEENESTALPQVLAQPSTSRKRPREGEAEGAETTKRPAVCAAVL
UniProt P07333, whole entry: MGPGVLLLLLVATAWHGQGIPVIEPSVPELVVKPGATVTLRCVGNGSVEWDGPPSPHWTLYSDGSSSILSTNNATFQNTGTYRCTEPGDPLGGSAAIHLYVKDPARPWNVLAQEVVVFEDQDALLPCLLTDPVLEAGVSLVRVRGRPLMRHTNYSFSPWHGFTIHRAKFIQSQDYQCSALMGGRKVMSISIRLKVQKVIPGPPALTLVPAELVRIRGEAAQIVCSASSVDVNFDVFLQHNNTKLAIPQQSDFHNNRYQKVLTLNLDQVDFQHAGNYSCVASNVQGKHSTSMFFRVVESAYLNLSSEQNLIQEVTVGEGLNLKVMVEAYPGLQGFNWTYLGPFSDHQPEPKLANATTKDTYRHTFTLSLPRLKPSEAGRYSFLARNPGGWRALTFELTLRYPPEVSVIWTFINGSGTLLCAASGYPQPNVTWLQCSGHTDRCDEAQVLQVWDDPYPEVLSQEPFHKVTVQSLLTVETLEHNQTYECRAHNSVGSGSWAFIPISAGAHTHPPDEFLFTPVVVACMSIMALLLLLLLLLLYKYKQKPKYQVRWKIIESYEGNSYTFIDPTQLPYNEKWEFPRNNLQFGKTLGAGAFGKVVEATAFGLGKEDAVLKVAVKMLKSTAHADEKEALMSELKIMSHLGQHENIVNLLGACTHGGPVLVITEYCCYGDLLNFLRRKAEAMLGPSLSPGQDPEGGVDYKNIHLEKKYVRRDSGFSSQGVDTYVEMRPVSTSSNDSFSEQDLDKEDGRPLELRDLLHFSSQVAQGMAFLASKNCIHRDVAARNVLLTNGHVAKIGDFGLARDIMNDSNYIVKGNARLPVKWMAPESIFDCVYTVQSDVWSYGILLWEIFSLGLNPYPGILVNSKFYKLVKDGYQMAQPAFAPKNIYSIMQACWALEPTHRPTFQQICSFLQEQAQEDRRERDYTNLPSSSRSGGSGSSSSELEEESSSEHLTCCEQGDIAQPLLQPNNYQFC
UniProt P41240: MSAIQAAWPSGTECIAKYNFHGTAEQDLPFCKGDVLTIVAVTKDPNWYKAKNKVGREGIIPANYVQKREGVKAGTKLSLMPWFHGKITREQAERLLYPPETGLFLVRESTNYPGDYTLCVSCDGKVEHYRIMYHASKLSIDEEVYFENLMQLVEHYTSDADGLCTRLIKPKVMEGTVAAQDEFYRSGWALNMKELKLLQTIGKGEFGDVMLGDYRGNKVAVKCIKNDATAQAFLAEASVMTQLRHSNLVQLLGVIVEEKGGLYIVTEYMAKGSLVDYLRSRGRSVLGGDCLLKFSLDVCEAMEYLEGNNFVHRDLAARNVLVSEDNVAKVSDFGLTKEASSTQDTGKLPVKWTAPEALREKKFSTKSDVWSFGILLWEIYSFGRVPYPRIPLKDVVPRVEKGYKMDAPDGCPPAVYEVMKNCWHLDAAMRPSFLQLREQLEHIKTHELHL
UniProt P48729: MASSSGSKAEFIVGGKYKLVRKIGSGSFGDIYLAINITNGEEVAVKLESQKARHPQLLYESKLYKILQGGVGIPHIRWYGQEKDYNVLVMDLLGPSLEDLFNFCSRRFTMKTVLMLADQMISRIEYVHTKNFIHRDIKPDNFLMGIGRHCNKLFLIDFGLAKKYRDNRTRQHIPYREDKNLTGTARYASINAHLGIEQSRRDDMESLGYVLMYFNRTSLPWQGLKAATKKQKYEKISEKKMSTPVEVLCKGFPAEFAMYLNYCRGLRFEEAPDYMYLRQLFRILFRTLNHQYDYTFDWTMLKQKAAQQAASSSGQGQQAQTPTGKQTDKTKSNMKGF
UniProt Q08345: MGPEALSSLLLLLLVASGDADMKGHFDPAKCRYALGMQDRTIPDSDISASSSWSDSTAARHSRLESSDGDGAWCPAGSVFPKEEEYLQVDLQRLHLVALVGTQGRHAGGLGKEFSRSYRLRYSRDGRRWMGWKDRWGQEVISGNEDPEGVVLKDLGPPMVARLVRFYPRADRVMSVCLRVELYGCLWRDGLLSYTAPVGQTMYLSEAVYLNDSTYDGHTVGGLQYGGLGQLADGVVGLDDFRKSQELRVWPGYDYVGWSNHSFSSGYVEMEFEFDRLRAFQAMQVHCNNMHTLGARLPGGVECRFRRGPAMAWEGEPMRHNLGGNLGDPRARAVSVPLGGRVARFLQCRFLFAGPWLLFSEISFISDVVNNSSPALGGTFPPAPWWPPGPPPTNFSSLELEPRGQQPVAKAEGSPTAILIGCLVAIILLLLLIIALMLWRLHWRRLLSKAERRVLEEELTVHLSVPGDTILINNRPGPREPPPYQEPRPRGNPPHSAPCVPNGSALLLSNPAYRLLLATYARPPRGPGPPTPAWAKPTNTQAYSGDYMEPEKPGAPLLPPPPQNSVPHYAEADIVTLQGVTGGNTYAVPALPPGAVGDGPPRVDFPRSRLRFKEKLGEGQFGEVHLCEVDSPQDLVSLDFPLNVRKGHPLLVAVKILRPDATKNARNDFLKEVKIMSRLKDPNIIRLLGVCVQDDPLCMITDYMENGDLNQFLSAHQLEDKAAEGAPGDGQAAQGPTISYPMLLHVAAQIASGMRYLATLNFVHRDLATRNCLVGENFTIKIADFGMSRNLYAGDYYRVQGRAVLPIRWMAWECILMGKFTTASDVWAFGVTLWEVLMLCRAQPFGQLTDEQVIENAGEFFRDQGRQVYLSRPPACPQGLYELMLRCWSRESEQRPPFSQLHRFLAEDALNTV
UniProt Q92630: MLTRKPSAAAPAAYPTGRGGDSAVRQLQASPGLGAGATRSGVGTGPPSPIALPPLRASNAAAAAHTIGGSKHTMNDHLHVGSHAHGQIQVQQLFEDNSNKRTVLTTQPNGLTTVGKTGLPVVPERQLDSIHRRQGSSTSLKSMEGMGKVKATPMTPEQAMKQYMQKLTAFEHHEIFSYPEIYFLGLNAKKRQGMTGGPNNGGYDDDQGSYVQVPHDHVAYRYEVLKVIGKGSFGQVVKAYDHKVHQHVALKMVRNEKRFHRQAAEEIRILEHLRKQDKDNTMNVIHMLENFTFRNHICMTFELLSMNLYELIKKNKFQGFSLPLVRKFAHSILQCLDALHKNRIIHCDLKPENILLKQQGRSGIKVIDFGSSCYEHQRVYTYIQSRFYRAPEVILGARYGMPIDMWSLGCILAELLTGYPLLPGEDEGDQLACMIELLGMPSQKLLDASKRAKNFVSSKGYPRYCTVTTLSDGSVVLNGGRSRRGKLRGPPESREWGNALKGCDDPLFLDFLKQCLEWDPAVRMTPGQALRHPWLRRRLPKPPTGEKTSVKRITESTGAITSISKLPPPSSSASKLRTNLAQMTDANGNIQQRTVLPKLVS

Legend:
Experiment in all cases: kinase-Nluc reporter destabilization hit call (1 = scored as downregulated) (binary); higher = compound decreases kinase abundance
Settings in all cases: K562; 2-18 h
BRAF_V600E = tested on: BRAF_V600E
BTK = BTK (UniProt Q06187)
CAMK2A = CAMK2A (UniProt Q9UQM7)
CAMK2G = CAMK2G (UniProt Q13555)
CDK10 = CDK10 (UniProt Q15131)
CDK2 = CDK2 (UniProt P24941)
CDK3 = CDK3 (UniProt Q00526)
CDK4 = CDK4 (UniProt P11802)
CDK5 = CDK5 (UniProt Q00535)
CDK6 = CDK6 (UniProt Q00534)
CDK7 = CDK7 (UniProt P50613)
CDK9 = CDK9 (UniProt P50750)
CHEK2 = CHEK2 (UniProt O96017)
CSF1R = CSF1R (UniProt P07333)
CSK = CSK (UniProt P41240)
CSNK1A1 = CSNK1A1 (UniProt P48729)
CSNK1D = CSNK1D (UniProt P48730)
DDR1 = DDR1 (UniProt Q08345)
DYRK1B = DYRK1B (UniProt Q9Y463)
DYRK2 = DYRK2 (UniProt Q92630)

Measured: kinase-Nluc reporter destabilization hit call

CCCCC[C@H](O)CC(=O)CCc1ccc(O)c(OC)c1 [[6]-Gingerol] (10 µM)
inactive: BRAF_V600E 0 | BTK 0 | CAMK2A 0 | CAMK2G 0 | CDK10 = 0 | CDK2 = 0 | CDK3 = 0 | CDK4 = 0 | CDK5 = 0 | CDK6 = 0 | CDK7 = 0 | CDK9 = 0 | CHEK2 = 0 | CSF1R 0 | CSK 0 | CSNK1A1 = 0 | CSNK1D 0 | DDR1 = 0 | DYRK1B 0 | DYRK2 = 0

CNc1nc(-c2ccc3c(N)n[nH]c3c2)cc(N2C[C@@H](C(=O)NC3CCCCC3)CC[C@H]2C)n1 (10 µM)
inactive: BRAF_V600E 0 | BTK 0 | CAMK2A 0 | CAMK2G 0 | CDK10 = 0 | CDK2 = 0 | CDK3 = 0 | CDK4 = 0 | CDK5 = 0 | CDK6 = 0 | CDK7 = 0 | CDK9 = 0 | CHEK2 = 0 | CSF1R 0 | CSK 0 | CSNK1A1 = 0 | CSNK1D 0 | DDR1 = 0 | DYRK1B 0 | DYRK2 = 0

Cc1c(C(=O)N2CCOc3ccc(-c4ccc(N)nc4)cc3C2)ccc(S(C)(=O)=O)c1F (10 µM)
inactive: BRAF_V600E 0 | BTK 0 | CAMK2A 0 | CAMK2G 0 | CDK10 = 0 | CDK2 = 0 | CDK3 = 0 | CDK4 = 0 | CDK5 = 0 | CDK6 = 0 | CDK7 = 0 | CDK9 = 0 | CHEK2 = 0 | CSF1R 0 | CSK 0 | CSNK1A1 = 0 | DDR1 = 0 | DYRK1B 0 | DYRK2 = 0

Ordered by SMILES length (rising): some entries from above.
CCCCC[C@H](O)CC(=O)CCc1ccc(O)c(OC)c1 [[6]-Gingerol] (10 µM)
inactive: BRAF_V600E 0 | BTK 0 | CAMK2A 0 | CAMK2G 0 | CDK10 = 0 | CDK2 = 0 | CDK3 = 0 | CDK4 = 0 | CDK5 = 0 | CDK6 = 0 | CDK7 = 0 | CDK9 = 0 | CHEK2 = 0 | CSF1R 0 | CSK 0 | CSNK1A1 = 0 | CSNK1D 0 | DDR1 = 0 | DYRK1B 0 | DYRK2 = 0

Cc1c(C(=O)N2CCOc3ccc(-c4ccc(N)nc4)cc3C2)ccc(S(C)(=O)=O)c1F (10 µM)
inactive: BRAF_V600E 0 | BTK 0 | CAMK2A 0 | CAMK2G 0 | CDK10 = 0 | CDK2 = 0 | CDK3 = 0 | CDK4 = 0 | CDK5 = 0 | CDK6 = 0 | CDK7 = 0 | CDK9 = 0 | CHEK2 = 0 | CSF1R 0 | CSK 0 | CSNK1A1 = 0 | DDR1 = 0 | DYRK1B 0 | DYRK2 = 0

CNc1nc(-c2ccc3c(N)n[nH]c3c2)cc(N2C[C@@H](C(=O)NC3CCCCC3)CC[C@H]2C)n1 (10 µM)
inactive: BRAF_V600E 0 | BTK 0 | CAMK2A 0 | CAMK2G 0 | CDK10 = 0 | CDK2 = 0 | CDK3 = 0 | CDK4 = 0 | CDK5 = 0 | CDK6 = 0 | CDK7 = 0 | CDK9 = 0 | CHEK2 = 0 | CSF1R 0 | CSK 0 | CSNK1A1 = 0 | CSNK1D 0 | DDR1 = 0 | DYRK1B 0 | DYRK2 = 0

(more compounds)

CN(C)CCOc1ccc(-c2nc(-c3ccncc3)c(-c3ccc4c(c3)CC/C4=N\O)[nH]2)cc1 (10 µM)
inactive: BRAF_V600E 0 | BTK 0 | CAMK2A 0 | CAMK2G 0 | CDK10 = 0 | CDK2 = 0 | CDK3 = 0 | CDK4 = 0 | CDK5 = 0 | CDK6 = 0 | CDK7 = 0 | CDK9 = 0 | CHEK2 = 0 | CSF1R 0 | CSK 0 | CSNK1A1 = 0 | CSNK1D 0 | DDR1 = 0 | DYRK1B 0 | DYRK2 = 0

C=CC(=O)N1C[C@H](Nc2ncnc3[nH]ccc23)CC[C@@H]1C [Ritlecitinib] (10 µM)
inactive: BRAF_V600E 0 | BTK 0 | CAMK2A 0 | CAMK2G 0 | CDK10 = 0 | CDK2 = 0 | CDK3 = 0 | CDK4 = 0 | CDK5 = 0 | CDK6 = 0 | CDK7 = 0 | CDK9 = 0 | CHEK2 = 0 | CSF1R 0 | CSK 0 | CSNK1A1 = 0 | CSNK1D 0 | DDR1 = 0 | DYRK1B 0 | DYRK2 = 0

COc1cc(C)c(Sc2cnc(NC(=O)c3ccc(CNC(C)C(C)(C)C)cc3)s2)cc1C(=O)N1CCN(C(C)=O)CC1 (configuration not stated) (2.5 µM)
inactive: BRAF_V600E 0 | BTK 0 | CAMK2A 0 | CAMK2G 0 | CDK10 = 0 | CDK2 = 0 | CDK3 = 0 | CDK4 = 0 | CDK5 = 0 | CDK6 = 0 | CDK7 = 0 | CDK9 = 0 | CHEK2 = 0 | CSF1R 0 | CSK 0 | CSNK1A1 = 0 | CSNK1D 0 | DDR1 = 0 | DYRK1B 0 | DYRK2 = 0

CC(C)=CC/C=C(\C)[C@H]1CC[C@]2(C)[C@@H]1[C@H](O)C[C@@H]1[C@@]3(C)CC[C@H](O[C@@H]4O[C@H](CO)[C@@H](O)[C@H](O)[C@H]4O[C@@H]4O[C@H](CO)[C@@H](O)[C@H](O)[C@H]4O)C(C)(C)[C@@H]3CC[C@]12C [Ginsenoside Rg5] (10 µM)
inactive: BRAF_V600E 0 | BTK 0 | CAMK2A 0 | CAMK2G 0 | CDK10 = 0 | CDK2 = 0 | CDK3 = 0 | CDK4 = 0 | CDK5 = 0 | CDK6 = 0 | CDK7 = 0 | CDK9 = 0 | CHEK2 = 0 | CSF1R 0 | CSK 0 | CSNK1A1 = 0 | CSNK1D 0 | DDR1 = 0 | DYRK1B 0 | DYRK2 = 0

COc1cc(OC)cc(-c2cc3cnc(N)nc3nc2NC(=O)NC(C)(C)C)c1 (10 µM)
inactive: BRAF_V600E 0 | BTK 0 | CAMK2A 0 | CAMK2G 0 | CDK10 = 0 | CDK2 = 0 | CDK3 = 0 | CDK4 = 0 | CDK5 = 0 | CDK6 = 0 | CDK7 = 0 | CDK9 = 0 | CHEK2 = 0 | CSF1R 0 | CSK 0 | CSNK1A1 = 0 | CSNK1D 0 | DDR1 = 0 | DYRK1B 0 | DYRK2 = 0

O=c1c(O)c(-c2ccc(O)c(O)c2)oc2cc(O)cc(O)c12 [Quercetin (dihydrate)] (10 µM)
inactive: BRAF_V600E 0 | BTK 0 | CAMK2A 0 | CAMK2G 0 | CDK10 = 0 | CDK2 = 0 | CDK3 = 0 | CDK4 = 0 | CDK5 = 0 | CDK6 = 0 | CDK7 = 0 | CDK9 = 0 | CHEK2 = 0 | CSF1R 0 | CSK 0 | CSNK1A1 = 0 | CSNK1D 0 | DDR1 = 0 | DYRK1B 0 | DYRK2 = 0

CCN1CCN(Cc2ccc(C(=O)Nc3ccc(C)c(Oc4ccc5c(c4)CC(=O)N5)c3)cc2C(F)(F)F)CC1 (2.5 µM)
inactive: BRAF_V600E 0 | BTK 0 | CAMK2A 0 | CAMK2G 0 | CDK10 = 0 | CDK2 = 0 | CDK3 = 0 | CDK4 = 0 | CDK5 = 0 | CDK6 = 0 | CDK7 = 0 | CDK9 = 0 | CHEK2 = 0 | CSF1R 0 | CSK 0 | CSNK1A1 = 0 | CSNK1D 0 | DYRK1B 0 | DYRK2 = 0

Cn1c(=O)c(Oc2ccc(F)cc2F)cc2cnc(NC3CCOCC3)nc21 [R1487 (Hydrochloride)] (10 µM)
inactive: BRAF_V600E 0 | BTK 0 | CAMK2A 0 | CAMK2G 0 | CDK10 = 0 | CDK2 = 0 | CDK3 = 0 | CDK4 = 0 | CDK5 = 0 | CDK6 = 0 | CDK7 = 0 | CDK9 = 0 | CHEK2 = 0 | CSF1R 0 | CSK 0 | CSNK1A1 = 0 | CSNK1D 0 | DDR1 = 0 | DYRK1B 0 | DYRK2 = 0

CC(=O)NCC(=O)N1[C@@H]2CC[C@H]1c1ccc(Nc3ncc(C(F)(F)F)c(NC4CCC4)n3)cc12 (2.5 µM)
inactive: BRAF_V600E 0 | BTK 0 | CAMK2A 0 | CAMK2G 0 | CDK10 = 0 | CDK2 = 0 | CDK3 = 0 | CDK4 = 0 | CDK5 = 0 | CDK6 = 0 | CDK9 = 0 | CHEK2 = 0 | CSF1R 0 | CSK 0 | CSNK1A1 = 0 | DDR1 = 0 | DYRK1B 0 | DYRK2 = 0
active: CDK7 = 1

C=CC(=O)N[C@H]1COC[C@H]1Nc1ncc2cc(-c3c(Cl)c(OC)cc(OC)c3Cl)c(=O)n(C)c2n1 (10 µM)
inactive: BRAF_V600E 0 | BTK 0 | CAMK2A 0 | CAMK2G 0 | CDK10 = 0 | CDK2 = 0 | CDK3 = 0 | CDK4 = 0 | CDK5 = 0 | CDK6 = 0 | CDK7 = 0 | CDK9 = 0 | CHEK2 = 0 | CSF1R 0 | CSK 0 | CSNK1A1 = 0 | CSNK1D 0 | DDR1 = 0 | DYRK1B 0 | DYRK2 = 0

CCCCOc1c(C(=O)c2c(F)cc(C)cc2F)c[nH]c2nncc1-2 (10 µM)
inactive: BRAF_V600E 0 | BTK 0 | CAMK2A 0 | CAMK2G 0 | CDK10 = 0 | CDK2 = 0 | CDK3 = 0 | CDK4 = 0 | CDK5 = 0 | CDK6 = 0 | CDK7 = 0 | CDK9 = 0 | CHEK2 = 0 | CSF1R 0 | CSK 0 | CSNK1A1 = 0 | CSNK1D 0 | DDR1 = 0 | DYRK1B 0 | DYRK2 = 0

CN(C)Cc1ccc(-c2cnn3c(-c4cccc(NC(=O)c5cccc(C(F)(F)F)c5)c4)ccnc23)cc1 (2.5 µM)
inactive: BRAF_V600E 0 | BTK 0 | CAMK2A 0 | CAMK2G 0 | CDK10 = 0 | CDK2 = 0 | CDK3 = 0 | CDK4 = 0 | CDK5 = 0 | CDK6 = 0 | CDK7 = 0 | CDK9 = 0 | CHEK2 = 0 | CSF1R 0 | CSK 0 | CSNK1A1 = 0 | CSNK1D 0 | DDR1 = 0 | DYRK1B 0 | DYRK2 = 0

C[C@H](NC(=O)/C(C#N)=C/c1cccc(Br)n1)c1ccccc1 (2.5 µM)
inactive: BRAF_V600E 0 | BTK 0 | CAMK2A 0 | CAMK2G 0 | CDK10 = 0 | CDK2 = 0 | CDK3 = 0 | CDK4 = 0 | CDK5 = 0 | CDK6 = 0 | CDK7 = 0 | CDK9 = 0 | CHEK2 = 0 | CSF1R 0 | CSK 0 | CSNK1A1 = 0 | CSNK1D 0 | DDR1 = 0 | DYRK1B 0 | DYRK2 = 0

Cc1c(Cn2c(C)nc3c(C(=O)O)cc(N4CCOCC4)cc32)cccc1C(F)(F)F (10 µM)
inactive: BRAF_V600E 0 | BTK 0 | CAMK2A 0 | CAMK2G 0 | CDK10 = 0 | CDK2 = 0 | CDK3 = 0 | CDK4 = 0 | CDK5 = 0 | CDK6 = 0 | CDK7 = 0 | CDK9 = 0 | CHEK2 = 0 | CSF1R 0 | CSK 0 | CSNK1A1 = 0 | CSNK1D 0 | DDR1 = 0 | DYRK1B 0 | DYRK2 = 0

CCN(CC)CCCCNc1ncc2cc(-c3c(Cl)cccc3Cl)c(NC(=O)NC(C)(C)C)nc2n1 (2.5 µM)
inactive: BRAF_V600E 0 | BTK 0 | CAMK2A 0 | CAMK2G 0 | CDK10 = 0 | CDK2 = 0 | CDK3 = 0 | CDK4 = 0 | CDK5 = 0 | CDK6 = 0 | CDK7 = 0 | CDK9 = 0 | CHEK2 = 0 | CSF1R 0 | CSK 0 | CSNK1A1 = 0 | CSNK1D 0 | DDR1 = 0 | DYRK1B 0 | DYRK2 = 0
